Measured values: the supplement of paper PMC12823440, “Inhibitors supercharge kinase turnover through native proteolytic circuits” (Nature, 2025)
Structures can show the parent of a compound that is named as a salt. The list shows a part of the results. Hit calls seldom repeat between salt and free forms of one compound.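 Kinases, fused to nanoluciferase, were expressed in K562 cells; luminescence was measured every 4 h from 2 to 18 h as percent of control (DMSO = 100%, positive control = 0%). A time point is decreased if signal falls significantly (2 sigma). Hits were called by the authors by a rule that is not shown; the count of time points alone does not decide it.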

Sequences of proteins named here, by UniProt entry; tags and fusion partners are left off. A change or cut given only in a name is not applied to a line headed by its entry.
UniProt P07949, whole entry, looked up: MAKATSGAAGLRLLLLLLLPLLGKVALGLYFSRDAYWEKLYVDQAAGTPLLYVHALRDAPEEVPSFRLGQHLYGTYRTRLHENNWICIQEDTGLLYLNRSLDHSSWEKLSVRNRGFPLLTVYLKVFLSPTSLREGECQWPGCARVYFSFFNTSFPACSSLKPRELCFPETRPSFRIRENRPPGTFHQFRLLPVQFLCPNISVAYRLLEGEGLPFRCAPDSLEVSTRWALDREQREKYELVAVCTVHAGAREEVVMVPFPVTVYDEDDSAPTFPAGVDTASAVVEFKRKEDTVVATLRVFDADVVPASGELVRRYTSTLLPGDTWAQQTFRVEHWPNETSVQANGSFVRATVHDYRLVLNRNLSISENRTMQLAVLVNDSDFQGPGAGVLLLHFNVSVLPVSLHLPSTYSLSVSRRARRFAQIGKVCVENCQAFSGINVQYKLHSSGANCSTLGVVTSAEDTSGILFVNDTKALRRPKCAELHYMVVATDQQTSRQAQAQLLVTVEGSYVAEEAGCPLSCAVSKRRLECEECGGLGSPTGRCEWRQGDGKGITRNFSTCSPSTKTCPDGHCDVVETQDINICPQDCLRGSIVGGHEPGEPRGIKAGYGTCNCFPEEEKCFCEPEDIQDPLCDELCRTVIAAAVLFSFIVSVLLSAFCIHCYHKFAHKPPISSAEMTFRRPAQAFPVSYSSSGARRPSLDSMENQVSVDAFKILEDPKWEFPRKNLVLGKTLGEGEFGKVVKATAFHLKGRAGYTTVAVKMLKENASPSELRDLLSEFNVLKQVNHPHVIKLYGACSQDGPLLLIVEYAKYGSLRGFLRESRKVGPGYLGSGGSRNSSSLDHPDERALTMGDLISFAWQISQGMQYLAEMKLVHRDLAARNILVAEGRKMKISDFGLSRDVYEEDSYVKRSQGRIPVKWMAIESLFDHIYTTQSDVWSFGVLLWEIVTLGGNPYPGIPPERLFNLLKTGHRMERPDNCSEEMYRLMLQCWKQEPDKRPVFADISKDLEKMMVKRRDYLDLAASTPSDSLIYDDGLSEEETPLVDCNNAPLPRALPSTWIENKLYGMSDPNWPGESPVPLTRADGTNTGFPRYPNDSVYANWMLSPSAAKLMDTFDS
UniProt P07949, whole entry M918T, looked up: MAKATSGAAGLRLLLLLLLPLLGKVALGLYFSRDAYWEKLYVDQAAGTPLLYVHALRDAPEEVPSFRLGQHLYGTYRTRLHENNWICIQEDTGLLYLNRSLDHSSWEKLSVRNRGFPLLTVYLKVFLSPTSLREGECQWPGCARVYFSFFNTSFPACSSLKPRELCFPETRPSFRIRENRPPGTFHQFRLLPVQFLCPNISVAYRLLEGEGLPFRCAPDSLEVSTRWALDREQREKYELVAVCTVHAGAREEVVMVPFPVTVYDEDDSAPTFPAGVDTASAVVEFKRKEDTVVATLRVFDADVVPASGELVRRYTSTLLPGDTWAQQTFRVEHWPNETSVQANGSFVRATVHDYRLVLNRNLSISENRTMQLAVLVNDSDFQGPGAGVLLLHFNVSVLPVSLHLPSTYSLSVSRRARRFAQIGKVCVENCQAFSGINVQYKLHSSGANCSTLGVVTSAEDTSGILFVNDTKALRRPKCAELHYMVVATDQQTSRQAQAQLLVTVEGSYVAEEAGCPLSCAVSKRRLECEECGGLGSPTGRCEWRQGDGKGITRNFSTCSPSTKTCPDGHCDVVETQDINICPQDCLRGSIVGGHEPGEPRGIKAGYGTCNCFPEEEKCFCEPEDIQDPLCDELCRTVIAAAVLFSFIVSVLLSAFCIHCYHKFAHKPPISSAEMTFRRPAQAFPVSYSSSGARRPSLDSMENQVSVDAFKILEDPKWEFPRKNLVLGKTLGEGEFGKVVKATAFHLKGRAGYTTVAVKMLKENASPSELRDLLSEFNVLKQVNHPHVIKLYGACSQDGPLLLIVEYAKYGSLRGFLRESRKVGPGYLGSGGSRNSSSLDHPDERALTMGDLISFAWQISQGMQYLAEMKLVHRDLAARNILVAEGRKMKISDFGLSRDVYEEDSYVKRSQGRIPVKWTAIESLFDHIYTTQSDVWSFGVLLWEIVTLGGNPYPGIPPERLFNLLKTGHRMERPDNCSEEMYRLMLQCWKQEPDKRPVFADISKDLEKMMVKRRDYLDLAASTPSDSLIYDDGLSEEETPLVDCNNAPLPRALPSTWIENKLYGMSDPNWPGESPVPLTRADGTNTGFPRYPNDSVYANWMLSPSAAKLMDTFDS
UniProt Q9BRS2: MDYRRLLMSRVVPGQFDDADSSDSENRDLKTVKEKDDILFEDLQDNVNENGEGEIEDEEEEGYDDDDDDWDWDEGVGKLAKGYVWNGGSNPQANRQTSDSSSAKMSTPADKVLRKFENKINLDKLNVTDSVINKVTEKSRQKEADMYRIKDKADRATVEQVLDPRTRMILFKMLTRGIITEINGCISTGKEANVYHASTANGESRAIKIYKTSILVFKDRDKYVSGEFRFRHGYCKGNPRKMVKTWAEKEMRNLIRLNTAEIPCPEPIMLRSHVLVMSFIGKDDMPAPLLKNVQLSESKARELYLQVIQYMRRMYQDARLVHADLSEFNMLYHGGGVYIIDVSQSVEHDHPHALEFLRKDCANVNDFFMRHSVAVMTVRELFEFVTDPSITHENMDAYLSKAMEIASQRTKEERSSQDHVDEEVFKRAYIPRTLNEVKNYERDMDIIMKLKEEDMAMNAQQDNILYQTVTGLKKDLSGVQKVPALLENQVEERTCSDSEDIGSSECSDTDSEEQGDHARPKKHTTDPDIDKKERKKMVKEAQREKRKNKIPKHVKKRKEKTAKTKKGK
UniProt Q15418, whole entry: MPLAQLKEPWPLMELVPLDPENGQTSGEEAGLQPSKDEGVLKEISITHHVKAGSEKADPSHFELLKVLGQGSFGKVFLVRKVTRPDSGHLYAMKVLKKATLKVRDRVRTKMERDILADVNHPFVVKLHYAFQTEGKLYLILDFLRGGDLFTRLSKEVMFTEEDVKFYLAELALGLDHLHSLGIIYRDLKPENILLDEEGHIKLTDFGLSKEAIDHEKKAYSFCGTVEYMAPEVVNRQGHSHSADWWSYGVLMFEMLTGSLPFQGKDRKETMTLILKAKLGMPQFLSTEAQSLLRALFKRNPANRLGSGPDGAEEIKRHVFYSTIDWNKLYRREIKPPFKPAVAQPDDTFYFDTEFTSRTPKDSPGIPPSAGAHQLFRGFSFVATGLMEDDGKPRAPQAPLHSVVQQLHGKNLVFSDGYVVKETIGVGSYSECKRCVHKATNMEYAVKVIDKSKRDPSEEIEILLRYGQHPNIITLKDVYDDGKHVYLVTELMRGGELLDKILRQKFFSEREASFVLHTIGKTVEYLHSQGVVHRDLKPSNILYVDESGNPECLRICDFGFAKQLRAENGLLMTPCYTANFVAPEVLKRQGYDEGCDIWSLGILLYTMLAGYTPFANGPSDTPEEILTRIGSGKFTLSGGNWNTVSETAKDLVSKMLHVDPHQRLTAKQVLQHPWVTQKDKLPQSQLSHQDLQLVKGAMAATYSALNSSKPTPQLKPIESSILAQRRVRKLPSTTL
UniProt Q9NYA1, whole entry: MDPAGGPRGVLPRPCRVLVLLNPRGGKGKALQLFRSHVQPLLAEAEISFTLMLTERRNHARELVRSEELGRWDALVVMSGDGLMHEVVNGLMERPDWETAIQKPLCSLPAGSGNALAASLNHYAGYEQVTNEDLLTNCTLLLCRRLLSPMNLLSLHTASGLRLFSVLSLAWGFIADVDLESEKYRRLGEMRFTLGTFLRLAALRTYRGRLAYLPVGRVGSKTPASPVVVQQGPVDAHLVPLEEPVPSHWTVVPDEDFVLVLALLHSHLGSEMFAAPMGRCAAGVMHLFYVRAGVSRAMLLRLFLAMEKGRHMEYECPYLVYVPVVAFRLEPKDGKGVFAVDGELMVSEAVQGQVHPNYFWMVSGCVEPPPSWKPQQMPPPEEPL
UniProt Q9Y6E0: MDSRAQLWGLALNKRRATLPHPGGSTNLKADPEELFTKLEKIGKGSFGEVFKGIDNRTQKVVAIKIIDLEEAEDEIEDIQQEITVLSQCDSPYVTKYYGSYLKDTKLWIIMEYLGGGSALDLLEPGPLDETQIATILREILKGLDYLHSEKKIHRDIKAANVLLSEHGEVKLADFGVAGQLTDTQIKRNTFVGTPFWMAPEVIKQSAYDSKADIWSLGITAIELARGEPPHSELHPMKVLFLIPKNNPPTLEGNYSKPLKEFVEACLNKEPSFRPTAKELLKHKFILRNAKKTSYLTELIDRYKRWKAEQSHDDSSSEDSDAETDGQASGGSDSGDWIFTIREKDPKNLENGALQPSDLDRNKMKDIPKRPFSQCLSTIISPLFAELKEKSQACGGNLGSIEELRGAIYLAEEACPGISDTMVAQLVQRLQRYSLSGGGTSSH
UniProt P42680: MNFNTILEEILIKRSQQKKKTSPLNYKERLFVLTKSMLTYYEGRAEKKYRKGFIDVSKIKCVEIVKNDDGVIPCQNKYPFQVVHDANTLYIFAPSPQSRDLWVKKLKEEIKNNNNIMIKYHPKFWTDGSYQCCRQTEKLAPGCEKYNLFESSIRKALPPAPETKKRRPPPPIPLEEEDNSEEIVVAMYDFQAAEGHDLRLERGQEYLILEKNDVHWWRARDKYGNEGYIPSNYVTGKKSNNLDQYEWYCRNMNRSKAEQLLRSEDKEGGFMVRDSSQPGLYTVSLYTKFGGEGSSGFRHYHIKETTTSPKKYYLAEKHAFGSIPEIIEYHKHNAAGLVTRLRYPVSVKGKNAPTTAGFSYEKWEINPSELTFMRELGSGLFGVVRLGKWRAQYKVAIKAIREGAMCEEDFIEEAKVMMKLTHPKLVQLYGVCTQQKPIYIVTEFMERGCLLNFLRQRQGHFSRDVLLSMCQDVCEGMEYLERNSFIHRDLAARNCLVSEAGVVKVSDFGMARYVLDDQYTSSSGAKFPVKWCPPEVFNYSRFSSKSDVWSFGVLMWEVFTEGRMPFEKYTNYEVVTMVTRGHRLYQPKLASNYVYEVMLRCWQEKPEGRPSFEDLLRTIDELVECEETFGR
UniProt P43403: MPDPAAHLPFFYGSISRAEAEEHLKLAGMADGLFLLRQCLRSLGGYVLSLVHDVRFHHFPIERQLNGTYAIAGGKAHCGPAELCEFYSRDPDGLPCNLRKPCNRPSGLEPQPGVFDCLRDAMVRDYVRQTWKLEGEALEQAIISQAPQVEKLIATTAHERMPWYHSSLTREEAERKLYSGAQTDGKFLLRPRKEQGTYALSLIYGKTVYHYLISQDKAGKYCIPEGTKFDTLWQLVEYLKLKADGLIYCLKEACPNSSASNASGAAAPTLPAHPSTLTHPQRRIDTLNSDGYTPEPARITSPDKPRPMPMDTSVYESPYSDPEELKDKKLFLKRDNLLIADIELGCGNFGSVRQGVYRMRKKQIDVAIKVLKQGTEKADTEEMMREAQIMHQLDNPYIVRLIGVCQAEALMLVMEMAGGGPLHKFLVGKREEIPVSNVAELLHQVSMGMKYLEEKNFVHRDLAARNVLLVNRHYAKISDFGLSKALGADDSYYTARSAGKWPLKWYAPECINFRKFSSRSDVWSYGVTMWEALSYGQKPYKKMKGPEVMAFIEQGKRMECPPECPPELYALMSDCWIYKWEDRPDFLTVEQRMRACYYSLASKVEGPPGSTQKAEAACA
UniProt P11802: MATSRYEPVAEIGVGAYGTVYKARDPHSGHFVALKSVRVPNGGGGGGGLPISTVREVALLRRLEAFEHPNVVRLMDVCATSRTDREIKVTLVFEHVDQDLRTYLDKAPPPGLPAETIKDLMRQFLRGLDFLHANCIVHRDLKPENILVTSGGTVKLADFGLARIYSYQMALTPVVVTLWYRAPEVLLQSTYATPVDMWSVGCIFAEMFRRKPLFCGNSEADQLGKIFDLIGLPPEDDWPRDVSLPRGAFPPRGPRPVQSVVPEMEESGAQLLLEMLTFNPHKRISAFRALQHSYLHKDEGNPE
UniProt P50613: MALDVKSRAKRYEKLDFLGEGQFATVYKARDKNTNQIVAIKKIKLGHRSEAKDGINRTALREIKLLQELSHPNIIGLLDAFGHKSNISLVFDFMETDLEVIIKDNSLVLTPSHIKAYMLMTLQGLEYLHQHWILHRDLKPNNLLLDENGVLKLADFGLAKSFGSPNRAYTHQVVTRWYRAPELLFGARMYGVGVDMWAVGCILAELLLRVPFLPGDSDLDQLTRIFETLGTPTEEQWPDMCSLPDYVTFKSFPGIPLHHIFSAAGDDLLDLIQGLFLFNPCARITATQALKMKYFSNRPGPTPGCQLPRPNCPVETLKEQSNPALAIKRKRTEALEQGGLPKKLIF

Key:
Details in all cases: K562, 2-18 h
[1] = biological target: RET (UniProt P07949); experiment: kinase-Nluc reporter destabilization hit call (1 = scored as downregulated) (binary); higher = compound decreases kinase abundance
[2] = biological target: RET_M918T (clone: RET_mut) (UniProt P07949); experiment: as above
[3] = biological target: RIOK1 (UniProt Q9BRS2); experiment: as above
[4] = biological target: RIPK1 (UniProt Q13546); experiment: as above
[5] = biological target: RIPK2 (UniProt O43353); experiment: as above
[6] = biological target: ROR2 (UniProt Q01974); experiment: as above
[7] = biological target: RPS6KA1 (UniProt Q15418); experiment: as above
[8] = biological target: SPHK1 (UniProt Q9NYA1); experiment: as above
[9] = biological target: SRC (UniProt P12931); experiment: as above
[10] = biological target: STK24 (UniProt Q9Y6E0); experiment: as above
[11] = biological target: STK38 (UniProt Q15208); experiment: as above
[12] = biological target: SYK (UniProt P43405); experiment: as above
[13] = biological target: TEC (UniProt P42680); experiment: as above
[14] = biological target: TYK2 (UniProt P29597); experiment: as above
[15] = biological target: ULK3 (UniProt Q6PHR2); experiment: as above
[16] = biological target: YES1 (UniProt P07947); experiment: as above
[17] = biological target: ZAK (UniProt Q9NYL2); experiment: as above
[18] = biological target: ZAP70 (UniProt P43403); experiment: as above
[19] = biological target: CDK4 (UniProt P11802); experiment: number of time points (of 4; 2 h point missing) at which kinase-Nluc abundance scored as decreased, DMSO-normalised (count); higher = more persistent destabilization
[20] = biological target: CDK7 (UniProt P50613); experiment: as above

SMILES	kinase-Nluc reporter destabilization hit call ([1]; 2.5 µM)	kinase-Nluc reporter destabilization hit call ([2]; 2.5 µM)	kinase-Nluc reporter destabilization hit call ([3]; 2.5 µM)	kinase-Nluc reporter destabilization hit call ([4]; 2.5 µM)	kinase-Nluc reporter destabilization hit call ([5]; 2.5 µM)	kinase-Nluc reporter destabilization hit call ([6]; 2.5 µM)	kinase-Nluc reporter destabilization hit call ([7]; 2.5 µM)	kinase-Nluc reporter destabilization hit call ([8]; 2.5 µM)	kinase-Nluc reporter destabilization hit call ([9]; 2.5 µM)	kinase-Nluc reporter destabilization hit call ([10]; 2.5 µM)	kinase-Nluc reporter destabilization hit call ([11]; 2.5 µM)	kinase-Nluc reporter destabilization hit call ([12]; 2.5 µM)	kinase-Nluc reporter destabilization hit call ([13]; 2.5 µM)	kinase-Nluc reporter destabilization hit call ([14]; 2.5 µM)	kinase-Nluc reporter destabilization hit call ([15]; 2.5 µM)	kinase-Nluc reporter destabilization hit call ([16]; 2.5 µM)	kinase-Nluc reporter destabilization hit call ([17]; 2.5 µM)	kinase-Nluc reporter destabilization hit call ([18]; 2.5 µM)	number of time points ([19]; 2.5 µM)	number of time points ([20]; 2.5 µM)	kinase-Nluc reporter destabilization hit call ([1]; 10 µM)	kinase-Nluc reporter destabilization hit call ([2]; 10 µM)	kinase-Nluc reporter destabilization hit call ([3]; 10 µM)	kinase-Nluc reporter destabilization hit call ([4]; 10 µM)	kinase-Nluc reporter destabilization hit call ([5]; 10 µM)	kinase-Nluc reporter destabilization hit call ([6]; 10 µM)	kinase-Nluc reporter destabilization hit call ([7]; 10 µM)	kinase-Nluc reporter destabilization hit call ([8]; 10 µM)	kinase-Nluc reporter destabilization hit call ([9]; 10 µM)	kinase-Nluc reporter destabilization hit call ([10]; 10 µM)	kinase-Nluc reporter destabilization hit call ([11]; 10 µM)	kinase-Nluc reporter destabilization hit call ([12]; 10 µM)	kinase-Nluc reporter destabilization hit call ([13]; 10 µM)	kinase-Nluc reporter destabilization hit call ([14]; 10 µM)	kinase-Nluc reporter destabilization hit call ([15]; 10 µM)	kinase-Nluc reporter destabilization hit call ([16]; 10 µM)	kinase-Nluc reporter destabilization hit call ([17]; 10 µM)	kinase-Nluc reporter destabilization hit call ([18]; 10 µM)	number of time points ([19]; 10 µM)	number of time points ([20]; 10 µM)
COc1ccc(CNC(=O)Nc2ncc([N+](=O)[O-])s2)cc1	inactive: 0	inactive: 0	inactive: 0	inactive: 0	inactive: 0	inactive: 0	inactive: 0	inactive: 0	inactive: 0	inactive: 0	inactive: 0	inactive: 0	inactive: 0	inactive: 0	inactive: 0	inactive: 0	inactive: 0	inactive: 0	0	0	–	–	–	–	–	–	–	–	–	–	–	–	–	–	–	–	–	–	–	–
O=C(NCCCNc1nc(Nc2cccc(CN3CCOCC3)c2)ncc1C1CC1)C1CCC1	–	–	–	–	–	–	–	–	–	–	–	–	–	–	–	–	–	–	–	–	inactive: 0	inactive: 0	inactive: 0	inactive: 0	inactive: 0	inactive: 0	inactive: 0	inactive: 0	inactive: 0	inactive: 0	inactive: 0	inactive: 0	inactive: 0	inactive: 0	inactive: 0	inactive: 0	inactive: 0	inactive: 0	0	0
C=CC(=O)N1C[C@@H](Nc2ncnc3[nH]ccc23)CC[C@H]1C [(2R,5S)-Ritlecitinib]	–	–	–	–	–	–	–	–	–	–	–	–	–	–	–	–	–	–	–	–	inactive: 0	inactive: 0	inactive: 0	inactive: 0	inactive: 0	inactive: 0	inactive: 0	inactive: 0	inactive: 0	inactive: 0	inactive: 0	inactive: 0	inactive: 0	inactive: 0	inactive: 0	inactive: 0	inactive: 0	inactive: 0	0	0
C=CC(=O)Nc1cc2c(Nc3ccc(F)c(Cl)c3)ncnc2cc1OCCCN1CCOCC1 [Canertinib (dihydrochloride)]	inactive: 0	inactive: 0	inactive: 0	inactive: 0	inactive: 0	inactive: 0	inactive: 0	inactive: 0	inactive: 0	inactive: 0	inactive: 0	inactive: 0	inactive: 0	inactive: 0	inactive: 0	inactive: 0	inactive: 0	inactive: 0	0	0	–	–	–	–	–	–	–	–	–	–	–	–	–	–	–	–	–	–	–	–
CCn1c(=O)c(-c2cc(NC(=O)Nc3ccccc3)c(F)cc2Br)cc2cnc(NC)cc21 [Ripretinib]	–	–	–	–	–	–	–	–	–	–	–	–	–	–	–	–	–	–	–	–	inactive: 0	inactive: 0	inactive: 0	inactive: 0	inactive: 0	inactive: 0	inactive: 0	inactive: 0	inactive: 0	inactive: 0	inactive: 0	inactive: 0	inactive: 0	inactive: 0	inactive: 0	inactive: 0	inactive: 0	inactive: 0	0	3
CC(C)N(CCC(=O)c1ccc2ccccc2c1)Cc1ccccc1	–	–	–	–	–	–	–	–	–	–	–	–	–	–	–	–	–	–	–	–	inactive: 0	inactive: 0	inactive: 0	inactive: 0	inactive: 0	inactive: 0	inactive: 0	inactive: 0	inactive: 0	inactive: 0	inactive: 0	inactive: 0	inactive: 0	inactive: 0	inactive: 0	inactive: 0	inactive: 0	inactive: 0	0	0
Cc1ccc(Nc2nccc(N(C)c3ccc4c(C)n(C)nc4c3)n2)cc1S(N)(=O)=O [Pazopanib (Hydrochloride)]	–	–	–	–	–	–	–	–	–	–	–	–	–	–	–	–	–	–	–	–	inactive: 0	inactive: 0	inactive: 0	inactive: 0	inactive: 0	inactive: 0	inactive: 0	inactive: 0	inactive: 0	inactive: 0	inactive: 0	inactive: 0	inactive: 0	inactive: 0	inactive: 0	inactive: 0	inactive: 0	inactive: 0	0	0
C[C@@H]1CN(C(=O)Nc2ccc(-c3nc(N4CCOCC4)c4cnn(CCCCCCC(=O)NO)c4n3)cc2)CCO1 [HDACs/mTOR Inhibitor 1]	–	–	–	–	–	–	–	–	–	–	–	–	–	–	–	–	–	–	–	–	inactive: 0	inactive: 0	inactive: 0	inactive: 0	inactive: 0	inactive: 0	inactive: 0	inactive: 0	inactive: 0	inactive: 0	inactive: 0	inactive: 0	inactive: 0	inactive: 0	inactive: 0	inactive: 0	inactive: 0	inactive: 0	0	0
COc1cc(N2CCN(C)CC2)ccc1Nc1nccc(-c2cn(C)c3cnccc23)n1	–	–	–	–	–	–	–	–	–	–	–	–	–	–	–	–	–	–	–	–	inactive: 0	inactive: 0	inactive: 0	inactive: 0	inactive: 0	inactive: 0	inactive: 0	inactive: 0	inactive: 0	inactive: 0	inactive: 0	inactive: 0	inactive: 0	inactive: 0	inactive: 0	inactive: 0	inactive: 0	inactive: 0	0	0
O=C(Nc1cccc(Nc2nccc(Nc3cccc(C(F)(F)F)c3)n2)c1)C1CC1 [Aurora kinase inhibitor-3]	inactive: 0	inactive: 0	inactive: 0	inactive: 0	inactive: 0	inactive: 0	inactive: 0	inactive: 0	inactive: 0	inactive: 0	inactive: 0	inactive: 0	inactive: 0	inactive: 0	inactive: 0	inactive: 0	inactive: 0	inactive: 0	0	0	–	–	–	–	–	–	–	–	–	–	–	–	–	–	–	–	–	–	–	–
Cc1cn(-c2cc(NC(=O)c3ccc(C)c(Nc4nccc(-c5cccnc5)n4)c3)cc(C(F)(F)F)c2)cn1 [Nilotinib]	inactive: 0	inactive: 0	inactive: 0	inactive: 0	inactive: 0	inactive: 0	inactive: 0	inactive: 0	inactive: 0	inactive: 0	inactive: 0	inactive: 0	inactive: 0	inactive: 0	inactive: 0	inactive: 0	inactive: 0	inactive: 0	1	3	–	–	–	–	–	–	–	–	–	–	–	–	–	–	–	–	–	–	–	–
O=S(=O)(c1cccc2c(O)nccc12)N1CCCNCC1 [Hydroxyfasudil (hydrochloride)]	–	–	–	–	–	–	–	–	–	–	–	–	–	–	–	–	–	–	–	–	inactive: 0	inactive: 0	inactive: 0	inactive: 0	inactive: 0	inactive: 0	inactive: 0	inactive: 0	inactive: 0	inactive: 0	inactive: 0	inactive: 0	inactive: 0	inactive: 0	inactive: 0	inactive: 0	inactive: 0	inactive: 0	0	0
CCCCCC1CC1CC1CC1CCCCCCCC(=O)OC (stereo not given)	–	–	–	–	–	–	–	–	–	–	–	–	–	–	–	–	–	–	–	–	inactive: 0	inactive: 0	inactive: 0	inactive: 0	inactive: 0	inactive: 0	inactive: 0	inactive: 0	inactive: 0	inactive: 0	inactive: 0	inactive: 0	inactive: 0	inactive: 0	inactive: 0	inactive: 0	inactive: 0	inactive: 0	0	0
C=CC(=O)N(C)CCOc1c(N)ncnc1-c1cc(F)cc(NC(=O)c2ccc(C3CC3)cc2F)c1C [Remibrutinib]	–	–	–	–	–	–	–	–	–	–	–	–	–	–	–	–	–	–	–	–	inactive: 0	inactive: 0	inactive: 0	inactive: 0	inactive: 0	inactive: 0	inactive: 0	inactive: 0	inactive: 0	inactive: 0	inactive: 0	inactive: 0	inactive: 0	inactive: 0	inactive: 0	inactive: 0	inactive: 0	inactive: 0	0	0
COc1cc2ncnc(Nc3cccc(Br)c3)c2cc1OC	–	–	–	–	–	–	–	–	–	–	–	–	–	–	–	–	–	–	–	–	inactive: 0	inactive: 0	inactive: 0	inactive: 0	inactive: 0	inactive: 0	inactive: 0	inactive: 0	inactive: 0	inactive: 0	inactive: 0	inactive: 0	inactive: 0	inactive: 0	inactive: 0	inactive: 0	inactive: 0	inactive: 0	0	0
CC#CC(=O)N1CCC[C@H]1c1nc(-c2ccc(C(=O)Nc3ccccn3)cc2)c2c(N)nccn12 [Acalabrutinib]	–	–	–	–	–	–	–	–	–	–	–	–	–	–	–	–	–	–	–	–	inactive: 0	inactive: 0	inactive: 0	inactive: 0	inactive: 0	inactive: 0	inactive: 0	inactive: 0	inactive: 0	inactive: 0	inactive: 0	inactive: 0	inactive: 0	inactive: 0	inactive: 0	inactive: 0	inactive: 0	inactive: 0	0	0
Cc1cc2c(F)c(Oc3ncnn4cc(OC[C@@H](C)O)c(C)c34)ccc2[nH]1 [Brivanib]	–	–	–	–	–	–	–	–	–	–	–	–	–	–	–	–	–	–	–	–	inactive: 0	inactive: 0	inactive: 0	inactive: 0	inactive: 0	inactive: 0	inactive: 0	inactive: 0	inactive: 0	inactive: 0	inactive: 0	inactive: 0	inactive: 0	inactive: 0	inactive: 0	inactive: 0	inactive: 0	inactive: 0	0	0
CC(C)[C@@](C)(O)[C@@H]1CN(c2nc(-c3[nH]nc4ncccc34)c(F)cc2Cl)CCN1	–	–	–	–	–	–	–	–	–	–	–	–	–	–	–	–	–	–	–	–	inactive: 0	inactive: 0	inactive: 0	inactive: 0	inactive: 0	inactive: 0	inactive: 0	inactive: 0	inactive: 0	inactive: 0	inactive: 0	inactive: 0	inactive: 0	inactive: 0	inactive: 0	inactive: 0	inactive: 0	inactive: 0	0	3
Nc1nc(Nc2ccc(S(N)(=O)=O)cc2)nn1C(=O)c1c(F)cccc1F	inactive: 0	inactive: 0	inactive: 0	inactive: 0	inactive: 0	inactive: 0	inactive: 0	inactive: 0	inactive: 0	inactive: 0	inactive: 0	inactive: 0	inactive: 0	inactive: 0	inactive: 0	inactive: 0	inactive: 0	inactive: 0	0	0	–	–	–	–	–	–	–	–	–	–	–	–	–	–	–	–	–	–	–	–
